Patent publication US20150291693A1 (FRAUNHOFER GESELLSCHAFT ZUR FORDERUNG DER ANGEWANDTEN …, published 2015)

The chains behind the UniProt entries cited, without tags or fusion partners. Where a name states a change or a piece, a line headed by the entry shows the natural chain unless it says otherwise.
UniProt P12314: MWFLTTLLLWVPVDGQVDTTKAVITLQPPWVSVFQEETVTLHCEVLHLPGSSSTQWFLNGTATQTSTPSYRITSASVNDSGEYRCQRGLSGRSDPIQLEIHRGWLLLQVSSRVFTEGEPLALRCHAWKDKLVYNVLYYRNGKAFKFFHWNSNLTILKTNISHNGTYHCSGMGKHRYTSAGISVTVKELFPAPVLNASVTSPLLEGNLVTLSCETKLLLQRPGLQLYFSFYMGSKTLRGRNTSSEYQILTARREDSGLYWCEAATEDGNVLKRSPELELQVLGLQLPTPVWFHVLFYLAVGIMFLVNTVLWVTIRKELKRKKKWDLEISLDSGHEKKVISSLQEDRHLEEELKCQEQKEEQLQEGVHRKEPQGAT

Biological target: CD64 (Fc gamma receptor I) (human, UniProt P12314 16-374)
Assay: flow cytometry, 1 µg protein on 4*10^5 CD64+ HL60 cells, anti-His Alexa 488 detection

binding: binds
B1: Gm-H22(scFv) (other)
chain: IIGGREVIPHSRPYMASLQRNGSHLCGGVLVHPKWVLTAAHCLAQRMAQLRLVLGLHTLDSPGLTFHIKAAIQHPRYKPVPALENDLALLQLDGKVKPSRTIRPLALPSKRQVVAAGTRCSMAGWGLTHQGGRLSRVLRELDLQVLDTRMCNNSRFWNGSLSPSMVCLAADSKDQAPCKGDSGGPLVCGKGRVLAGVLSFSSRVCTDIFKPPVATAVAPYVSWIRKVTGRSAAEHEGDAAQPAMAQVQLVESGGGVVQPGRSLRLSCSSSGFIFSDNYMYWVRQAPGKGLEWVATISDGGSYTYYPDSVKGRFTISRDNSKNTLFLQMDSLRPEDTGVYFCARGYYRYEGAMDYWGQGTPVTVSSGGGGSGGGGSGGGGSDIQLTQSPSSLSASVGDRVTITCKSSQSVLYSSNQKNYLAWYQQKPGKAPKLLIYWASTRESGVPSRFSGSGSGTDFTFTISSLQPEDIATYYCHQYLSSWTFGQGTKLEIK

These are yes or no findings as the source states them, for the method shown. Binding can be weak; no strength is given.
